Results as given in patent publication US6399827B1, “Quaternary ammonium phosphate compound and method of preparing same” (SK Chemicals, priority 1997, dated 2002).

Assays:
Conditions in all cases: rate of corrosion from weight loss after 42 hours; test material 20 ppm, pH 8.5, 40° C., 15 ppm magnesium hardness, aerated, 150 rpm
[1] = Anticorrosive effect test, tinning steel plate
[2] = Anticorrosive effect test, cast iron
[3] = Anticorrosive effect test, carbon steel
[4] = Anticorrosive effect test, copper

SMILES	Anticorrosive effect (mpy) tinning steel [1] [mpy]	Anticorrosive effect (mpy) cast iron [2] [mpy]	Anticorrosive effect (mpy) carbon steel [3] [mpy]	Anticorrosive effect (mpy) copper [4] [mpy]
CC(C)(C)CC(C)(C)c1ccc(OCCOCC[N+](C)(C)Cc2ccccc2)cc1.[Cl-] [A, N-dimethyl-N-[p-(α,α,γ,γ)-tetramethylbutylphenoxy]ethoxy ethyl-N-benzyl chloride]	0.5	6.5	7.2	0.5
CC(C)(C)CC(C)(C)c1ccc(OCCOCC[N+](C)(C)Cc2ccccc2)cc1.O=P([O-])(O)O [example 1, N-dimethyl-N-[p-(α,α,γ,γ)-tetramethylbutylphenoxy]ethoxy ethyl-N-benzyl ammonium phosphate]	0.1	1.3	4.5	0.1
